# Data published in the supplement of paper PMC8728848.
# Some of the results follow.
# B1: Protein L(B1-B4) (Finegoldia magna), Q51912 (protein)
# chain: KEETPETPETDSEEEVTIKANLIFANGSTQTAEFKGTFEKATSEAYAYADTLKKDNGEYTVDVADKGYTLNIKFAGKEKTPEEPKEEVTIKANLIYADGKTQTAEFKGTFEEATAEAYRYADALKKDNGEYTVDVADKGYTLNIKFAGKEKTPEEPKEEVTIKANLIYADGKTQTAEFKGTFEEATAEAYRYADLLAKENGKYTVDVADKGYTLNIKFAGKEKTPEEPKEEVTIKANLIYADGKTQTAEFKGTFAEATAEAYRYADLLAKENGKYTADLEDGGYTINIRFAG
# Columns and labels:
# Experiment in all cases: glycan array binding signal (z-score within array); higher = stronger binding
# Settings in all cases: glycan notation: IUPAC condensed, linker removed
# [1] = biological target: Kdn(a2-3)Gal(b1-4)Glc
# Method in brief: (§1)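 The binding signal is a Z-score computed within each array and averaged over linkers. Arrays of the same protein sequence at different concentrations or buffers were also averaged together. Data originate from 3228 arrays in the Consortium for Functional Glycomics database, kept only where the protein sequence was available.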
# [2] = biological target: Kdn(a2-3)Gal(b1-4)GlcNAc
# Method in brief: as §1
# [3] = biological target: Kdn(a2-3)Gal(b1-4)[Fuc(a1-3)]GlcNAc
# Method in brief: as §1
# [4] = biological target: Kdn(a2-6)Gal(b1-4)GlcNAc
# Method in brief: as §1
# [5] = biological target: Man(a1-2)Man(a1-2)Man(a1-3)Man
# Method in brief: as §1
# [6] = biological target: Man(a1-2)Man(a1-2)Man(a1-6)[Man(a1-3)]Man
# Method in brief: as §1
# [7] = biological target: Man(a1-2)Man(a1-3)Man
# Method in brief: as §1
# [8] = biological target: Man(a1-2)Man(a1-3)[Man(a1-2)Man(a1-6)]Man
# Method in brief: as §1
# [9] = biological target: Man(a1-2)Man(a1-3)[Man(a1-2)Man(a1-6)]Man(a1-6)[Man(a1-2)Man(a1-2)Man(a1-3)]Man
# Method in brief: as §1
# [10] = biological target: Man(a1-2)Man(a1-3)[Man(a1-2)Man(a1-6)]Man(a1-6)[Man(a1-2)Man(a1-2)Man(a1-3)]Man(b1-4)GlcNAc(b1-4)GlcNAc
# Method in brief: as §1
# [11] = biological target: Man(a1-2)Man(a1-3)[Man(a1-6)]Man(a1-6)[Man(a1-2)Man(a1-3)]Man(b1-4)GlcNAc(b1-4)GlcNAc
# Method in brief: as §1
# [12] = biological target: Man(a1-2)Man(a1-6)[Man(a1-3)]Man(a1-6)[Man(a1-2)Man(a1-2)Man(a1-3)]Man
# Method in brief: as §1
# [13] = biological target: Man(a1-2)Man(a1-6)[Man(a1-3)]Man(a1-6)[Man(a1-2)Man(a1-2)Man(a1-3)]Man(b1-4)GlcNAc(b1-4)GlcNAc
# Method in brief: as §1
# [14] = biological target: Man(a1-3)[Man(a1-6)]Man
# Method in brief: as §1
# [15] = biological target: Man(a1-3)[Man(a1-6)]Man(a1-6)[Man(a1-2)Man(a1-3)]Man(b1-4)GlcNAc(b1-4)GlcNAc
# Method in brief: as §1
# [16] = biological target: Man(a1-3)[Man(a1-6)]Man(a1-6)[Man(a1-3)]Man
# Method in brief: as §1
# [17] = biological target: Man(a1-3)[Man(a1-6)]Man(a1-6)[Man(a1-3)]Man(b1-4)GlcNAc(b1-4)GlcNAc
# Method in brief: as §1
# [18] = biological target: Man(a1-3)[Man(a1-6)]Man(b1-4)GlcNAc(b1-4)GlcNAc
# Method in brief: as §1
# [19] = biological target: Man(a1-3)[Man(a1-6)]Man(b1-4)GlcNAc(b1-4)[Fuc(a1-6)]GlcNAc
# Method in brief: as §1
# [20] = biological target: Man(a1-6)Man
# Method in brief: as §1
# [21] = biological target: Man(b1-4)GlcNAc
# Method in brief: as §1
# [22] = biological target: MurNAc(b1-4)GlcNAc
# Method in brief: as §1
# [23] = biological target: Neu5Ac(a2-3)Gal
# Method in brief: as §1
# [24] = biological target: Neu5Ac(a2-3)Gal(b1-3)GalNAc
# Method in brief: as §1
# [25] = biological target: Neu5Ac(a2-3)Gal(b1-3)GalNAc(b1-3)Gal(a1-4)Gal(b1-4)Glc
# Method in brief: as §1
# [26] = biological target: Neu5Ac(a2-3)Gal(b1-3)GalNAc(b1-4)[Neu5Ac(a2-3)]Gal(b1-4)Glc
# Method in brief: as §1
# [27] = biological target: Neu5Ac(a2-3)Gal(b1-3)GalNAc(b1-4)[Neu5Ac(a2-8)Neu5Ac(a2-3)]Gal(b1-4)Glc
# Method in brief: as §1
# [28] = biological target: Neu5Ac(a2-3)Gal(b1-3)GalNAc6S
# Method in brief: as §1
# [29] = biological target: Neu5Ac(a2-3)Gal(b1-3)GlcNAc
# Method in brief: as §1
# [30] = biological target: Neu5Ac(a2-3)Gal(b1-3)GlcNAc(b1-2)Man
# Method in brief: as §1
# [31] = biological target: Neu5Ac(a2-3)Gal(b1-3)GlcNAc(b1-2)Man(a1-3)[GlcNAc(b1-4)][Neu5Ac(a2-3)Gal(b1-3)GlcNAc(b1-2)Man(a1-6)]Man(b1-4)GlcNAc(b1-4)GlcNAc
# Method in brief: as §1
# [32] = biological target: Neu5Ac(a2-3)Gal(b1-3)GlcNAc(b1-2)Man(a1-3)[Neu5Ac(a2-3)Gal(b1-3)GlcNAc(b1-2)Man(a1-6)]Man(b1-4)GlcNAc(b1-4)GlcNAc
# Method in brief: as §1
# [33] = biological target: Neu5Ac(a2-3)Gal(b1-3)GlcNAc(b1-3)Gal(b1-3)GlcNAc
# Method in brief: as §1
# [34] = biological target: Neu5Ac(a2-3)Gal(b1-3)GlcNAc(b1-3)Gal(b1-4)GlcNAc
# Method in brief: as §1
# [35] = biological target: Neu5Ac(a2-3)Gal(b1-3)GlcNAc(b1-3)GalNAc
# Method in brief: as §1
# [36] = biological target: Neu5Ac(a2-3)Gal(b1-3)GlcNAc(b1-4)Gal(b1-4)Glc
# Method in brief: as §1
# [37] = biological target: Neu5Ac(a2-3)Gal(b1-3)GlcNAc(b1-6)GalNAc
# Method in brief: as §1
# [38] = biological target: Neu5Ac(a2-3)Gal(b1-3)GlcNAc6S
# Method in brief: as §1
binder,measurement,setting,value
B1,glycan array binding signal (z-score),[1],-0.246
same,glycan array binding signal (z-score),[2],0.668
same,glycan array binding signal (z-score),[3],2.26
same,glycan array binding signal (z-score),[4],-0.664
same,glycan array binding signal (z-score),[5],-0.464
same,glycan array binding signal (z-score),[6],0.146
same,glycan array binding signal (z-score),[7],0.213
same,glycan array binding signal (z-score),[8],-0.872
same,glycan array binding signal (z-score),[9],-0.82
same,glycan array binding signal (z-score),[10],0.717
same,glycan array binding signal (z-score),[11],-0.027
same,glycan array binding signal (z-score),[12],-0.6
same,glycan array binding signal (z-score),[13],-0.64
same,glycan array binding signal (z-score),[14],-0.479
same,glycan array binding signal (z-score),[15],2.94
same,glycan array binding signal (z-score),[16],-0.4
same,glycan array binding signal (z-score),[17],0.111
same,glycan array binding signal (z-score),[18],0.117
same,glycan array binding signal (z-score),[19],-0.445
same,glycan array binding signal (z-score),[20],-0.159
same,glycan array binding signal (z-score),[21],-0.62
same,glycan array binding signal (z-score),[22],-1.04
same,glycan array binding signal (z-score),[23],-0.766
same,glycan array binding signal (z-score),[24],-0.542
same,glycan array binding signal (z-score),[25],0.345
same,glycan array binding signal (z-score),[26],-0.583
same,glycan array binding signal (z-score),[27],0.74
same,glycan array binding signal (z-score),[28],-0.621
same,glycan array binding signal (z-score),[29],-0.387
same,glycan array binding signal (z-score),[30],1.77
same,glycan array binding signal (z-score),[31],0.659
same,glycan array binding signal (z-score),[32],-0.453
same,glycan array binding signal (z-score),[33],-0.63
same,glycan array binding signal (z-score),[34],-0.363
same,glycan array binding signal (z-score),[35],-0.496
same,glycan array binding signal (z-score),[36],-0.762
same,glycan array binding signal (z-score),[37],0.922
same,glycan array binding signal (z-score),[38],0.538

# Some of the entries above, reformatted.
binder	measurement	setting	value
B1	glycan array binding signal (z-score)	[5]	-0.464
same	glycan array binding signal (z-score)	[6]	0.146
same	glycan array binding signal (z-score)	[7]	0.213
